Test results: EP0339504A2 (priority 1988, dated 1989)
Strings that start with PEPTIDE1 are HELM notation: dots part the residues, brackets hold end groups and non-standard residues.

Test: peptide made by a vendor (peptide synthesis; p-alkoxybenzyl alcohol resins from Bachem Inc.; Pentafluorophenyl esters; hydroxybenzotriazole assisted or preformed symmetric a)
Settings: whole synthesis, reverse phase chromatography on Pharmacia FPLC PepRPC HR5/5 column; FAB-MS

## PEPTIDE1{R.I.Q.R.G.P.G.R.A.F.V.T.I.G.K}$$$$V2.0
  purity (crude or final not stated): 74%
